{"source": "PubChem BioAssay AID1053208 (Peter MacCallum Cancer Centre, 2014)", "assay": "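Find knock-downs that sensitise mouse osteosarcoma cells to doxorubicin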 (primary screen)", "system": "mouse osteosarcoma cells, early-passage culture from an engineered mouse model of fibroblastic bone tumour", "reagents": "siRNA pool against mouse genes, 40 nM", "duration": "about 120 h (48 h before drug, then 72 h with drug)", "conditions": "doxorubicin 100 nM for 72 h, roughly 30-40% inhibitory dose", "measurement": "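Luminescent ATP signal taken as viability with or without 100 nM doxorubicin for 72 h; mean of two wells set against non-targeting siRNA and turned into robust z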", "scale": "viability z-score with doxorubicin: higher = more viable cells under doxorubicin; viability z-score without drug: higher = more viable cells with knock-down alone", "call rule": "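a pool counts as active when its viability z-score with doxorubicin is -2 or below and its z-score without drug lies between -2 and 2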", "note": "Here is one part, drawn at random, of about 17,000 deposited reagents. 788 of them (4.7%) count as active. 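Calls rest on z-score classes alone; an extra cut-off of viability at most 70% of control was not applied to them.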 Unmarked entries are inactive. Not all columns of the deposit are shown. No sequences are given here."}
{"gene knocked down":"Tes (testin LIM domain protein)","combined z-score class":"no change with or without drug","viability z-score with doxorubicin":-0.67,"viability z-score without drug":0.84}
{"gene knocked down":"Pxdc1 (PX domain containing 1)","combined z-score class":"no change with or without drug","viability z-score with doxorubicin":1.57,"viability z-score without drug":1.35}
{"gene knocked down":"Tmem121 (transmembrane protein 121)","combined z-score class":"no change with or without drug","viability z-score with doxorubicin":1.8,"viability z-score without drug":1.52}
{"gene knocked down":"Morn4 (MORN repeat containing 4)","combined z-score class":"no change with or without drug","viability z-score with doxorubicin":-0.45,"viability z-score without drug":-0.84}
{"gene knocked down":"Or51f23b (olfactory receptor family 51 subfamily F member 23B)","combined z-score class":"low cell count with and without drug","viability z-score with doxorubicin":-2.25,"viability z-score without drug":-2.02}
{"gene knocked down":"Atox1 (antioxidant 1 copper chaperone)","combined z-score class":"no change with or without drug","viability z-score with doxorubicin":0.22,"viability z-score without drug":-1.18}
{"gene knocked down":"Mafa (MAF bZIP transcription factor A)","combined z-score class":"no change with or without drug","viability z-score with doxorubicin":-0.22,"viability z-score without drug":-0.17}
{"gene knocked down":"Nt5dc3 (5'-nucleotidase domain containing 3)","combined z-score class":"high cell count with doxorubicin only","viability z-score with doxorubicin":2.02,"viability z-score without drug":1.18}
{"gene knocked down":"Cox8a (cytochrome c oxidase subunit 8A)","combined z-score class":"no change with or without drug","viability z-score with doxorubicin":0.11,"viability z-score without drug":-0.34}
{"gene knocked down":"Dvl2 (dishevelled segment polarity protein 2)","combined z-score class":"no change with or without drug","viability z-score with doxorubicin":0.79,"viability z-score without drug":-0.17}
{"gene knocked down":"Dbn1 (drebrin 1)","combined z-score class":"no change with or without drug","viability z-score with doxorubicin":-0.11,"viability z-score without drug":1.52}
{"gene knocked down":"Capza2 (capping actin protein of muscle Z-line subunit alpha 2)","combined z-score class":"no change with or without drug","viability z-score with doxorubicin":-0.11,"viability z-score without drug":-0.17}

An excerpt from above, reduced to “viability z-score with doxorubicin”:
Dvl2 (dishevelled segment polarity protein 2): 0.79
Dbn1 (drebrin 1): -0.11

More results:
{"gene knocked down":"Terb1 (telomere repeat binding bouquet formation protein 1)","combined z-score class":"no change with or without drug","viability z-score with doxorubicin":-0.9,"viability z-score without drug":0.67}
{"gene knocked down":"Slc6a20a","combined z-score class":"no change with or without drug","viability z-score with doxorubicin":0,"viability z-score without drug":-0.67}
{"gene knocked down":"0610007P08RIK","combined z-score class":"no change with or without drug","viability z-score with doxorubicin":1.69,"viability z-score without drug":1.52}
{"gene knocked down":"Oog2 (oogenesin 2)","combined z-score class":"no change with or without drug","viability z-score with doxorubicin":0.34,"viability z-score without drug":0}
{"gene knocked down":"Ubqln4 (ubiquilin 4)","combined z-score class":"no change with or without drug","viability z-score with doxorubicin":0.34,"viability z-score without drug":0.17}
{"gene knocked down":"Hsd3b1","combined z-score class":"no change with or without drug","viability z-score with doxorubicin":-0.45,"viability z-score without drug":0.51}
{"gene knocked down":"Hsd3b2","combined z-score class":"no change with or without drug","viability z-score with doxorubicin":0,"viability z-score without drug":0}
